Article PMC8305194, “Structural, Mechanistic, and Functional Insights into an Arthrobacter nicotinovorans Molybdenum Hydroxylase Involved in Nicotine Degradation” (Molecules, 2021)
No constants are given. Whether binding was seen depends on the method and setting. Some results given as binding are weak or reduced against the parent protein; the word gives no strength.

Tests used:
[1] = target: T1, Kdh middle subunit KdhM (6-hydroxypseudooxynicotine 2-oxidoreductase / ketone dehydrogenase, middle subunit) (Arthrobacter nicotinovorans) (UniProt O87681); assay: crystal structure; Kdh holoenzyme crystallised by hanging-drop vapor diffusion at 14 °C; 1% tryptone, 0.1 M Tris-HCl pH 8.0, 25% PEG 3350; space group P212121, two heterotrimers per asymmetric unit; 3.4 Å; both purified
T1 sequence: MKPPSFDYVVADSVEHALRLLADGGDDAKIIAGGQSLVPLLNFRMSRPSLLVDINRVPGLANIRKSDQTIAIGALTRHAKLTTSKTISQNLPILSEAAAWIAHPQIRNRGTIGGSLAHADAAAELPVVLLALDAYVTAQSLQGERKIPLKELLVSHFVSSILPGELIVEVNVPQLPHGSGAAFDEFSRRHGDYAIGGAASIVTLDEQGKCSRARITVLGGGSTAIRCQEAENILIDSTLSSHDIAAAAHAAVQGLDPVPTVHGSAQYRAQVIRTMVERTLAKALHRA

[2] = target: T2, Kdh large subunit KdhL (6-hydroxypseudooxynicotine 2-oxidoreductase / ketone dehydrogenase, large subunit) (Arthrobacter nicotinovorans) (UniProt Q933N0); assay: as above
T2 sequence: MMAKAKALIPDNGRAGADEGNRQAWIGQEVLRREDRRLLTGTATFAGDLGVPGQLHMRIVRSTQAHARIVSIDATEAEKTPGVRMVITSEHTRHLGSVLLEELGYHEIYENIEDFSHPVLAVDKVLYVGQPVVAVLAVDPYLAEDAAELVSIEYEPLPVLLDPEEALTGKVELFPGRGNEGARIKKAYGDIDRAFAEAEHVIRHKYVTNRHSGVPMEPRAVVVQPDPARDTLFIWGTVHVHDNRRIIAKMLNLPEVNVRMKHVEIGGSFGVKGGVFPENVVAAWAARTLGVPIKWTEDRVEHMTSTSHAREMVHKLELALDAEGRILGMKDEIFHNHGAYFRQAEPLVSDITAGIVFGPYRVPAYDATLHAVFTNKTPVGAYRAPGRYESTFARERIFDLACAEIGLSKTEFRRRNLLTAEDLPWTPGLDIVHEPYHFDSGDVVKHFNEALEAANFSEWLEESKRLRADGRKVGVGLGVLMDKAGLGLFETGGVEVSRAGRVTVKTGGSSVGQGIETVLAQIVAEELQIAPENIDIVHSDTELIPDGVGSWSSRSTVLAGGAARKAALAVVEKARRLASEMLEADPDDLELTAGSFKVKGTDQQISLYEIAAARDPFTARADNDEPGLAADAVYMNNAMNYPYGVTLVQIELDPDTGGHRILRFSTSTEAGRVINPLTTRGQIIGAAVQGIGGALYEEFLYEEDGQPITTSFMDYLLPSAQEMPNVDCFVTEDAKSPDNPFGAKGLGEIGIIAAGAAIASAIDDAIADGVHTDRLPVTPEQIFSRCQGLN

B1: Kdh small subunit KdhS (6-hydroxypseudooxynicotine 2-oxidoreductase / ketone dehydrogenase, small subunit) (enzyme, UniProt O87682 1-160)
chain: MNAFRLTVEVNGVTHATDVEPRRLLADFLRDDLHLRGTRVGCEHGVCGSCTVLLDGQPVRSCTVLAVQANNSRIETVESLQKDGQLHPLQRSFSKCHALQCGFCTSGFLMTLKPLYDDEDVTLDATSAREAISGNICRCTGYQQIVEATVDAFHCRDHND
**Q.** What does the source list for B1?
**A.** binding [1]: binds; binding [2]: binds
